Experimental data from PubChem BioAssay AID493014 (National Center for Advancing Translational Sciences (NCATS), 2011).
The other results are listed elsewhere or left out. The main result of the screen is listed elsewhere. These columns were measured beside it and carry no call. Compounds called inactive in the main read-out are mostly missing here. Words in brackets tell the shape of the fitted curve; partial curves, single points and poor fits give uncertain potencies.

Test: qHTS Assay to Find Inhibitors of Chronic Active B-Cell Receptor Signaling
Conditions: ABC-DLBCL IkBa-CBG/CBR reporter, luminescence ratio (green luciferase fused to IkBa over red control in TMD8 lymphoma cells), 4 h
Outline: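 Doxycycline induced both beetle luciferases in TMD8 lymphoma cells; IKK-driven degradation limits the IkappaBalpha-fused green signal, while red luminescence normalises for cell number and nonspecific effects. Compounds tested up to 46 uM, 4 hrs.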

[1] = measured here: CBR red luminescence, cell number
[2] = measured here: IkBa-CBG green luminescence

SMILES	AC50 [1]	AC50 [2]
COc1ccc(NC(=O)c2ccc3c(c2)OCO3)cc1Cl	0.562 µM [falling, full curve]	–
COCCCNC(=O)c1cc(C(=O)c2c(-c3c(Cl)cccc3Cl)noc2C)c[nH]1	6.31 µM [rising, single point]	–
O=C(NN1C(=O)C2C3C=CC(C4CC34)C2C1=O)c1ccc(Cl)cc1 (stereo not drawn)	0.891 µM [falling, full curve, poor fit]	–
O=C(CC(Nc1ccc(Cl)cc1)C(=O)O)c1ccccc1 (stereo not drawn)	11.6 µM [falling, partial curve, poor fit]	–
O=C(/C=C/c1ccccc1)NCCc1ccccc1	8.91 µM [falling, partial curve, poor fit]	–
CCOC(=O)C1=C(C)NC2=C(C(=O)CC(C)(C)C2)C1c1ccc(N(C)C)cc1 (stereo not drawn)	8.2 µM [rising, partial curve, poor fit]	–
CCOC(=O)c1cccc(NC(=O)CCn2c(-c3ccc(F)cc3)cc(C(=O)OCC)c2C)c1	3.55 µM [rising, single point]	–
N#Cc1ccc(/C=C/C(=O)c2ccccc2)cc1	17.8 µM [rising, partial curve, poor fit]	31.6 µM [falling, single point]
O=C(O)c1ccc(Nc2nc3c(s2)CCCC3)cc1	0.355 µM [falling, full curve]	–
COc1cc(-c2cc(C(=O)NCCc3ccc(S(N)(=O)=O)cc3)c3ccccc3n2)cc(OC)c1OC	6.31 µM [rising, single point]	–
COc1ccc(N2CCN(S(=O)(=O)CCNS(=O)(=O)c3ccccc3)CC2)cc1	2.06 µM [rising, full curve]	–
CN(C)c1ccc(/C=N/NC(=O)c2ccc3nc[nH]c3c2)cc1	8.91 µM [falling, partial curve, poor fit]	–
COc1ccc(Br)c(C(=O)NCC2CCCCC2)c1	7.94 µM [rising, partial curve, poor fit]	–
COC(=O)c1ccccc1NC(=O)NC1CCN(Cc2ccccc2)CC1	1.16 µM [falling, full curve, poor fit]	–
O=S(=O)(Cc1ccccc1)NCCc1cccc(Cl)c1	6.31 µM [rising, full curve, poor fit]	–
CCN1C(=O)[C@H]2[C@H]3CN=C(SCc4ccc(Cl)cc4)N3[C@@](CC)(C(=O)OC)[C@H]2C1=O	25.9 µM [falling, partial curve]	–
Cc1cccc(-c2ccc3ncnc(N(C)Cc4ccco4)c3c2)c1	4.11 µM [rising, single point]	–
COCCCNC(=S)N/N=C/c1ccc(OC)c(Br)c1	–	35.5 µM [falling, single point]
COc1ccc(CC(NC(C)=O)C(=O)N2CCN(C(=O)N(C(C)C)C(C)C)CC2)cc1 (stereo not drawn)	29.1 µM [falling, single point]	–
COC(=O)c1ccccc1NC(=O)c1cc2sccc2n1C	6.51 µM [falling, full curve, poor fit]	–
O=C(Nc1cccc(C(F)(F)F)c1)Nc1ccon1	3.98 µM [rising, single point]	–
CC(C)(C(=O)Nc1nccs1)c1ccccc1	0.316 µM [falling, partial curve, poor fit]	–
Cc1nn(-c2ccccc2)c(C)c1NC(=O)c1ccc(S(=O)(=O)N2CCCC2)cc1	6.31 µM [rising, partial curve, poor fit]	–
CCOC(=O)CCNC(=O)c1ccc2nc(C3CCCCC3)oc2c1	12.6 µM [rising, partial curve]	–
CN(C)c1ccc(N2CN=C3SCC(=O)N3C2)cc1	6.31 µM [falling, partial curve]	–
CC(C)OCCCNC1=C(Cl)C(=O)c2ccccc2C1=O	0.708 µM [falling, full curve, poor fit]	0.562 µM [rising, full curve, poor fit]
CC(=O)C1=C(c2ccccc2)NC(=O)NC1c1cccs1 (stereo not drawn)	15.8 µM [falling, partial curve, poor fit]	35.5 µM [rising, partial curve, poor fit]
CS(=O)(=O)c1ccc2nc(NC(=O)c3ccc(Cl)nc3)sc2c1	14.1 µM [falling, single point]	–
Cc1cccc(NC(=S)NNC(=O)c2sccc2C)c1	20.6 µM [falling, partial curve]	–
CCOC(=O)c1cc2c(=O)n3ccccc3nc2n(Cc2ccco2)c1=NC(=O)c1cccc(OC)c1	35.5 µM [falling, single point]	–

Single records, as listed above. Values in the order: AC50 [1] | AC50 [2]
`CC(=O)C1=C(c2ccccc2)NC(=O)NC1c1cccs1` (stereo not drawn) reads 15.8 µM [falling, partial curve, poor fit] | 35.5 µM [rising, partial curve, poor fit]
`COc1ccc(CC(NC(C)=O)C(=O)N2CCN(C(=O)N(C(C)C)C(C)C)CC2)cc1` (stereo not drawn) reads 29.1 µM [falling, single point] | –
